No constants are given. Whether binding was seen depends on the method and setting. In cells and extracts the contact can be indirect. Here binding means that the protein was enriched with, or labelled near, the bait; the list need not be complete.

Chains of the proteins cited; added tags and fusions are not shown.
UniProt Q9NS91: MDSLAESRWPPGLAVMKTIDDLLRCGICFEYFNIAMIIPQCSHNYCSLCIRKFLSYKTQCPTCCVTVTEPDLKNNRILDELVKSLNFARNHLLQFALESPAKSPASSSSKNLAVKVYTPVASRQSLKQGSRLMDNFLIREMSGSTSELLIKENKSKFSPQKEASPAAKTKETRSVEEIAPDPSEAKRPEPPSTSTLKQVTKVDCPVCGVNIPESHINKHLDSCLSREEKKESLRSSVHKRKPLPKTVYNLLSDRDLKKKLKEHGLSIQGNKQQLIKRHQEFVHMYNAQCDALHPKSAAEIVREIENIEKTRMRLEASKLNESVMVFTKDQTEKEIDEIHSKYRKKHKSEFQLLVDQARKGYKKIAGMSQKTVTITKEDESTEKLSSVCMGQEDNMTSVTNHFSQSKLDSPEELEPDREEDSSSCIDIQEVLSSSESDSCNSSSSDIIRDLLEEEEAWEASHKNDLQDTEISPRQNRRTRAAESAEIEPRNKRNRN
UniProt P12004: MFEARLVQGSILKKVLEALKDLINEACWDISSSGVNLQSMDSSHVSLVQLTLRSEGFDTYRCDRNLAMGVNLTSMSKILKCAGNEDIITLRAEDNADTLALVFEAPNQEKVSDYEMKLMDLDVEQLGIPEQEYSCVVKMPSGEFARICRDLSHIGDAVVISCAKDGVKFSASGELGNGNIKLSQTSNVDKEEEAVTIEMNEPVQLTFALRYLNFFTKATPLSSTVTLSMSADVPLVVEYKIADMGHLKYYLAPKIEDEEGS
UniProt P27694: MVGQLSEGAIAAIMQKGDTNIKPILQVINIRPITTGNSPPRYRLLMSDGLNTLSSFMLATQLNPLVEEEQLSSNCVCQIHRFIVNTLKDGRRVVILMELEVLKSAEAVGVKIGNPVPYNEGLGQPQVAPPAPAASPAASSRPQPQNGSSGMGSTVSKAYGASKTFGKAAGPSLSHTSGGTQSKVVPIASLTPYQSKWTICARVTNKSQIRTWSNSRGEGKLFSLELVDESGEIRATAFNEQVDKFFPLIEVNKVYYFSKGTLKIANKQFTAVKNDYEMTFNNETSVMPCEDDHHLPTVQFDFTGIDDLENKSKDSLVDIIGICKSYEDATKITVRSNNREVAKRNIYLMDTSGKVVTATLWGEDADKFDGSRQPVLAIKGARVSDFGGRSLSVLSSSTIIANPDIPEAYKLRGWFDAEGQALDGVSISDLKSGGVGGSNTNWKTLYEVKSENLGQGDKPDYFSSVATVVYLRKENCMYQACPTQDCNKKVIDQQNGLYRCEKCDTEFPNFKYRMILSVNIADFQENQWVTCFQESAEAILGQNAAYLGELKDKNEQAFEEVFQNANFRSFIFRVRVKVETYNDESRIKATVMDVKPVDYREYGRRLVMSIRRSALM

In this test the target is E3 ubiquitin-protein ligase Rad18 (human (endogenous in 143B)) (UniProt Q9NS91). The experiment in a line: affinity purification with mass spectrometry; lysate of 143B cells treated with 5 μM doxorubicin for 6 h, immunoprecipitated with an anti-Rad18 antibody; SDS-PAGE, silver staining, band cut out for mass spectrometry.

Consider PCNA (from UniProt P12004 1-261), for which the binding result was “binds”.
As for RPA1 (from UniProt P27694 1-616), the entry is “binds”.

These data come from paper PMC9034549.
